According to patent US6653308B2, “3-(4-amidopyrrol-2-ylmethylidene)-2-indolinone derivatives as protein kinase inhibitors” (Sugen, Inc., priority 2001, dated 2003):
Some entries share one result that the patent states for a list of compounds.

Chains of the proteins cited; added tags and fusions are not shown. Residues count along the entry.
UniProt P09619, 33-1106, species assumed: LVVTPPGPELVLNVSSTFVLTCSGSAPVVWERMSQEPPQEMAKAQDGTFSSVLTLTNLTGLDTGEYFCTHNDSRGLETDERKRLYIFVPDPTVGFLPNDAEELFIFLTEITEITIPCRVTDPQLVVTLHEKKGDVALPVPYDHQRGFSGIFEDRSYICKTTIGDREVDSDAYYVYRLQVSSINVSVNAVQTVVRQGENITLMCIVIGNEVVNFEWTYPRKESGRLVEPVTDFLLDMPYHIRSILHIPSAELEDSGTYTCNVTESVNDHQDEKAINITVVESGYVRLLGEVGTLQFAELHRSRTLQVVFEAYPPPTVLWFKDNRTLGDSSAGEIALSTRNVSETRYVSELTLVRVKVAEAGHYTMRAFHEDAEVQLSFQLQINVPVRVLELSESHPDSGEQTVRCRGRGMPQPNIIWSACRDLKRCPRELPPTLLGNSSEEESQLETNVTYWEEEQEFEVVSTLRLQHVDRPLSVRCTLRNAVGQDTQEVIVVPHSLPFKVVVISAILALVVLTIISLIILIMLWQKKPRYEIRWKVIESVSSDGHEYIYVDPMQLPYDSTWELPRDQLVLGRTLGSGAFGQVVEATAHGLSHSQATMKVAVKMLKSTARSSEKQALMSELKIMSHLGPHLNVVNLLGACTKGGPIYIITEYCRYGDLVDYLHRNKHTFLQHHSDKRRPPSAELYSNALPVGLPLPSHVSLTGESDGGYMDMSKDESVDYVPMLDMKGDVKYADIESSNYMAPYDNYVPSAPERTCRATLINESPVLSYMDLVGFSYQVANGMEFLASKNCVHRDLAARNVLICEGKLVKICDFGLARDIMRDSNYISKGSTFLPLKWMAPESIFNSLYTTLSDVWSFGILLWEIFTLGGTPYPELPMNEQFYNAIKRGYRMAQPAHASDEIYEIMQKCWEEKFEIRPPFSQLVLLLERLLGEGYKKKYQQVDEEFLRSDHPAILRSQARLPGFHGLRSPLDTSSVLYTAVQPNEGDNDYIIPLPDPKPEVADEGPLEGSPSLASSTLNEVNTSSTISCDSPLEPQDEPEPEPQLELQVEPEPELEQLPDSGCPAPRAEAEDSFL
UniProt P35918, 784-1345 limits assumed: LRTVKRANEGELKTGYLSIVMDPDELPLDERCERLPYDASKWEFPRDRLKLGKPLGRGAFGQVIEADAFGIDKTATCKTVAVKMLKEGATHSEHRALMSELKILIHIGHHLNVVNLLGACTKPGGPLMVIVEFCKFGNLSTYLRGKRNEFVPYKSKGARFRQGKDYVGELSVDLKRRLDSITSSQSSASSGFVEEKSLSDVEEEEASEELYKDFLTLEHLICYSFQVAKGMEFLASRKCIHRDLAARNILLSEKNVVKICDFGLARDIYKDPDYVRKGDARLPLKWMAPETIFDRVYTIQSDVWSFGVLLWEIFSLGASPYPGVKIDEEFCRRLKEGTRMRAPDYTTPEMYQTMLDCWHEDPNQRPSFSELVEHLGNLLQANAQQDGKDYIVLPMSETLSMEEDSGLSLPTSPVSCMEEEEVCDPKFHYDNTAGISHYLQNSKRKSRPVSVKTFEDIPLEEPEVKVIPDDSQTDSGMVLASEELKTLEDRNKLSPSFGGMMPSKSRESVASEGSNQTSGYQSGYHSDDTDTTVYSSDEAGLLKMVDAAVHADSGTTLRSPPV
UniProt P11362, 398-822 limits assumed: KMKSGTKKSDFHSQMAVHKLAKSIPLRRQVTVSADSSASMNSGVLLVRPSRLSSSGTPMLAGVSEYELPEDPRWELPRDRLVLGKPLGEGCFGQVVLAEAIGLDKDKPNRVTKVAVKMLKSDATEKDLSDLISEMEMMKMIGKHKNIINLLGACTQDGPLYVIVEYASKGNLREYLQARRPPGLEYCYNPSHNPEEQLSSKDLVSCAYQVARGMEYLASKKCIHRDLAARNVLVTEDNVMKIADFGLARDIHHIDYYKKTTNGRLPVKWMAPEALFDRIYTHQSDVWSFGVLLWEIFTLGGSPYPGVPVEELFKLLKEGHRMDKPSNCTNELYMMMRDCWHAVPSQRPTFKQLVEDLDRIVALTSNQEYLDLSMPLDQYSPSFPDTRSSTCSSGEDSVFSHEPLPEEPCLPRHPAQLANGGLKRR

Columns and labels:
Assay type in all cases: biochemical
PDGFR = target: T1, PDGFR (Homo sapiens, UniProt P09619); experiment: PDGFR Bioassay (PDGF assay)
T1 construct: host or cells: NIH 3T3 cells (lysate; receptor captured on plate with monoclonal 28D4C10)

GST-Flk1 = target: T2, GST-Flk1 (Mus musculus, UniProt P35918); experiment: GST-FLK-1 Bioassay (flkGST)
T2 construct: GST-Flk1cd purified from sf9 recombinant baculovirus transformation (SUGEN, Inc.); host or cells: Sf9 insect cells (recombinant baculovirus)

GST-FGFR1 = GST-FGFR1 (Homo sapiens, UniProt P11362); experiment: FGFR1 Bioassay

Cc1[nH]c(/C=C2\C(=O)Nc3ccccc32)c(C)c1C(=O)NCC(O)Cn1ccnn1 (stereo not drawn) [Compound 6, 2,4-Dimethyl-5-[2-oxo-1,2-dihydro-indol-(3Z)-ylidenemethyl]-1H-pyrrole-3-carboxylic acid (2-hydroxy-3-[1,2,3]triazol-1-yl-propyl)-amide]
active: activity in PDGF assay (PDGFR) | activity in flkGST assay (GST-Flk1) | activity in FGFR1 assay (GST-FGFR1)

Cc1[nH]c(/C=C2\C(=O)Nc3ccc(Br)cc32)c(C)c1C(=O)NCC(O)CN1CCOCC1 (stereo not drawn) [Compound 5, 5-[5-Bromo-2-oxo-1,2-dihydro-indol-(3Z)-ylidenemethyl)-2,4-dimethyl-1H-pyrrole-3-carboxylic acid (2-hydroxy-3-morpholin-4-yl-propyl)-amide]
active: activity in PDGF assay (PDGFR) | activity in flkGST assay (GST-Flk1) | activity in FGFR1 assay (GST-FGFR1)

Cc1[nH]c(/C=C2\C(=O)Nc3ccc(Br)cc32)c(C)c1C(=O)NCC(O)Cn1ccnn1 (stereo not drawn) [Compound 9, 5-[5-Bromo-2-oxo-1,2-dihydro-indol-(3Z)-ylidenemethyl]-2,4-dimethyl-1H-pyrrole-3-carboxylic acid (2-hydroxy-3-[1,2,3]triazol-1-yl-propyl)-amide]
active: activity in PDGF assay (PDGFR) | activity in flkGST assay (GST-Flk1) | activity in FGFR1 assay (GST-FGFR1)

Cc1[nH]c(/C=C2\C(=O)Nc3ccccc32)c(C)c1C(=O)NCC(O)CN1CCOCC1 (stereo not drawn) [Compound 3, 2,4-Dimethyl-5-[2-oxo-1,2-dihydro-indol-(3Z)-ylidenemethyl]-1H-pyrrole-3-carboxylic acid (2-hydroxy-3-morpholin-4-yl-propyl)-amide]
active: activity in PDGF assay (PDGFR) | activity in flkGST assay (GST-Flk1) | activity in FGFR1 assay (GST-FGFR1)

Cc1[nH]c(/C=C2\C(=O)Nc3ccc(F)cc32)c(C)c1C(=O)NCC(O)CN1CCOCC1 (stereo not drawn) [Compound 2, 5-[5-Fluoro-2-oxo-1,2-dihydro-indol-(3Z)-ylidenemethyl]-2,4-dimethyl-1H-pyrrole-3-carboxylic acid (2-hydroxy-3-morpholin-4-yl-propyl)-amide]
active: activity in PDGF assay (PDGFR) | activity in flkGST assay (GST-Flk1) | activity in FGFR1 assay (GST-FGFR1)

Cc1[nH]c(/C=C2\C(=O)Nc3ccc(Cl)cc32)c(C)c1C(=O)NCC(O)CN1CCOCC1 (stereo not drawn) [Compound 4, 5-[5-Chloro-2-oxo-1,2-dihydro-indol-(3Z)-ylidenemethyl]-2,4-dimethyl-1H-pyrrole-3-carboxylic acid (2-hydroxy-3-morpholin-4-yl-propyl)-amide]
active: activity in PDGF assay (PDGFR) | activity in flkGST assay (GST-Flk1) | activity in FGFR1 assay (GST-FGFR1)

Cc1[nH]c(/C=C2\C(=O)Nc3ccc(Cl)cc32)c(C)c1C(=O)NCC(O)Cn1ccnn1 (stereo not drawn) [Compound 8, 5-[5-Chloro-2-oxo-1,2-dihydro-indol-(3Z)-ylidenemethyl]-2,4-dimethyl-1H-pyrrole-3-carboxylic acid (2-hydroxy-3-[1,2,3]triazol-1-yl-propyl)-amide]
active: activity in PDGF assay (PDGFR) | activity in flkGST assay (GST-Flk1) | activity in FGFR1 assay (GST-FGFR1)

CCN(CC)CC(O)CNC(=O)c1c(C)[nH]c(/C=C2\C(=O)Nc3ccc(F)cc32)c1C (stereo not drawn) [Compound 1, 5-(5-Fluoro-2-oxo-1,2-dihydro-indol-3-ylidenemethyl)-2,4-dimethyl-1H-pyrrole-3-carboxylic acid (3-diethylamino-2-hydroxy-propyl)-amide]
active: activity in PDGF assay (PDGFR) | activity in flkGST assay (GST-Flk1) | activity in FGFR1 assay (GST-FGFR1)

Cc1[nH]c(/C=C2\C(=O)Nc3ccc(F)cc32)c(C)c1C(=O)NCC(O)Cn1ccnn1 (stereo not drawn) [Compound 7, 5-[5-Fluoro-2-oxo-1,2-dihydro-indol-(3Z)-ylidenemethyl]-2,4-dimethyl-1H-pyrrole-3-carboxylic acid (2-hydroxy-3-[1,2,3]triazol-1-yl-propyl)-amide]
active: activity in PDGF assay (PDGFR) | activity in flkGST assay (GST-Flk1) | activity in FGFR1 assay (GST-FGFR1)
